This is one part of the list. The data scatter; read single values as rough.
The targets below were run with ClCC(=O)N[C@H]1CCCc2ccccc12 (assay: log2 mean competition ratio of IA-DTB cysteine labelling (DMSO/compound) (log2 ratio); higher = stronger cysteine engagement by compound). Conditions: 50 µM; treatment time: 4 h; cell line lysate: HEK293T.
Protocol: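 IA-DTB competitive cysteine chemoproteomics in HEK293T RIPA lysate. Lysates were treated with compound 29 or 30 at 50 or 200 µM for 4 h, then IA-DTB (500 µM, 1 h), trypsin-digested, NeutrAvidin-enriched and analysed by diaPASEF. Competition ratio = intensity DMSO / intensity compound (n=4 treated, n=64 DMSO); binding: mean log2 CR ≥ 1 and p ≤ 0.05 plus QC filters. Target is the cysteine site.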

Sequences of proteins named here, by UniProt entry; tags and fusion partners are left off. A change or cut given only in a name is not applied to a line headed by its entry. Residues count along the entry.
UniProt Q9ULT8, 1382-1403: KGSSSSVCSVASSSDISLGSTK
UniProt O75330: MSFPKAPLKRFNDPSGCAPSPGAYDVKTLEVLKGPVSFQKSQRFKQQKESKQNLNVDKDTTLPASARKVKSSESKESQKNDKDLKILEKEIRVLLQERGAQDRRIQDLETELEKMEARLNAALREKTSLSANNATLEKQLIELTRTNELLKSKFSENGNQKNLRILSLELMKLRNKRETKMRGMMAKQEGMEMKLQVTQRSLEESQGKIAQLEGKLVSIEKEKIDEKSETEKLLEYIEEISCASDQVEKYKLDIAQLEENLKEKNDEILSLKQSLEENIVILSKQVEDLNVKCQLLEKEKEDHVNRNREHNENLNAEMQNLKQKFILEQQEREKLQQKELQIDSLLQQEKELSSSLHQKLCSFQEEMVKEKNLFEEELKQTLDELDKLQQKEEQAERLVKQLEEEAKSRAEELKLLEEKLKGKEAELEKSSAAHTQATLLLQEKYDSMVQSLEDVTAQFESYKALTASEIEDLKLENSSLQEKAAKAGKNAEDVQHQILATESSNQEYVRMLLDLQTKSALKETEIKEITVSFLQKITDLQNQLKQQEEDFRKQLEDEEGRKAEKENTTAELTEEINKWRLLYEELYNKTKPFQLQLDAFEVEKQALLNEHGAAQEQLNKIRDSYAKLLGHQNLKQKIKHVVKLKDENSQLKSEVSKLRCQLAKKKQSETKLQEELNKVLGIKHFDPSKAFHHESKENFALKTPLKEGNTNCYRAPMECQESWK
UniProt Q8NG08: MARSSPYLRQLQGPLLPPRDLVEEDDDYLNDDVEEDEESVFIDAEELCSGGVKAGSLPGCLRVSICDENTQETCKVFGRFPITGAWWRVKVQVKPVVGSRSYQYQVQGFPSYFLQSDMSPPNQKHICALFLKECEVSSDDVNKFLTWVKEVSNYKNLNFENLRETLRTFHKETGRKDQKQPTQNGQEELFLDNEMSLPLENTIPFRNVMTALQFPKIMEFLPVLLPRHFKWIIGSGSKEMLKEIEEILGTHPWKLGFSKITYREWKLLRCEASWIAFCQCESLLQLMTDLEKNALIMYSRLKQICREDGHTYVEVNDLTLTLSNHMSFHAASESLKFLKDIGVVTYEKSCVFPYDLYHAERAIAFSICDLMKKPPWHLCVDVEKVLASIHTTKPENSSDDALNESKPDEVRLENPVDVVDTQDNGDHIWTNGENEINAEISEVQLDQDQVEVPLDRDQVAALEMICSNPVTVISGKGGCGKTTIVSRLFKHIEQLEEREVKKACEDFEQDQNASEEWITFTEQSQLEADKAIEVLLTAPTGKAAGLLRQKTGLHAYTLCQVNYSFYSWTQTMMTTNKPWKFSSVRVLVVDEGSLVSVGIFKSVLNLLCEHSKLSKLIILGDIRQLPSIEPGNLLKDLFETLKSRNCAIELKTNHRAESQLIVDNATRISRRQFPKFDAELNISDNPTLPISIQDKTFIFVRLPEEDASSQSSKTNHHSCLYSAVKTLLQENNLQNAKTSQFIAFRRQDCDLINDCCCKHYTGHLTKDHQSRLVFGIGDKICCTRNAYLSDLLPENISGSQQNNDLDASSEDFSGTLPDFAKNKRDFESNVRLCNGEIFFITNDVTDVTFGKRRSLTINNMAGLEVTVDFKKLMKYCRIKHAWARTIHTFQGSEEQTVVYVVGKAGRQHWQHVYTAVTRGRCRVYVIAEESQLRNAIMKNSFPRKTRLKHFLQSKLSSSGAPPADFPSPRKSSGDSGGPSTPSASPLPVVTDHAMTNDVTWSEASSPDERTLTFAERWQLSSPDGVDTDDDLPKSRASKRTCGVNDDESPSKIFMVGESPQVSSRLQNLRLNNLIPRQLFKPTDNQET
UniProt P21266: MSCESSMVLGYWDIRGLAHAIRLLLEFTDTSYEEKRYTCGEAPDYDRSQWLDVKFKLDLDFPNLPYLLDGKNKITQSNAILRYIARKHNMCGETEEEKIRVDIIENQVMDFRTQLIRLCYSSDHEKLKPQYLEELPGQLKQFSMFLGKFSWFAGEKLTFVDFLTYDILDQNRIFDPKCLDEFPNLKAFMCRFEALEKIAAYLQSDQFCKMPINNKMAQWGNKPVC
UniProt Q00839, 638-664: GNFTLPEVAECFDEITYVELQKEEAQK
UniProt Q86XA9: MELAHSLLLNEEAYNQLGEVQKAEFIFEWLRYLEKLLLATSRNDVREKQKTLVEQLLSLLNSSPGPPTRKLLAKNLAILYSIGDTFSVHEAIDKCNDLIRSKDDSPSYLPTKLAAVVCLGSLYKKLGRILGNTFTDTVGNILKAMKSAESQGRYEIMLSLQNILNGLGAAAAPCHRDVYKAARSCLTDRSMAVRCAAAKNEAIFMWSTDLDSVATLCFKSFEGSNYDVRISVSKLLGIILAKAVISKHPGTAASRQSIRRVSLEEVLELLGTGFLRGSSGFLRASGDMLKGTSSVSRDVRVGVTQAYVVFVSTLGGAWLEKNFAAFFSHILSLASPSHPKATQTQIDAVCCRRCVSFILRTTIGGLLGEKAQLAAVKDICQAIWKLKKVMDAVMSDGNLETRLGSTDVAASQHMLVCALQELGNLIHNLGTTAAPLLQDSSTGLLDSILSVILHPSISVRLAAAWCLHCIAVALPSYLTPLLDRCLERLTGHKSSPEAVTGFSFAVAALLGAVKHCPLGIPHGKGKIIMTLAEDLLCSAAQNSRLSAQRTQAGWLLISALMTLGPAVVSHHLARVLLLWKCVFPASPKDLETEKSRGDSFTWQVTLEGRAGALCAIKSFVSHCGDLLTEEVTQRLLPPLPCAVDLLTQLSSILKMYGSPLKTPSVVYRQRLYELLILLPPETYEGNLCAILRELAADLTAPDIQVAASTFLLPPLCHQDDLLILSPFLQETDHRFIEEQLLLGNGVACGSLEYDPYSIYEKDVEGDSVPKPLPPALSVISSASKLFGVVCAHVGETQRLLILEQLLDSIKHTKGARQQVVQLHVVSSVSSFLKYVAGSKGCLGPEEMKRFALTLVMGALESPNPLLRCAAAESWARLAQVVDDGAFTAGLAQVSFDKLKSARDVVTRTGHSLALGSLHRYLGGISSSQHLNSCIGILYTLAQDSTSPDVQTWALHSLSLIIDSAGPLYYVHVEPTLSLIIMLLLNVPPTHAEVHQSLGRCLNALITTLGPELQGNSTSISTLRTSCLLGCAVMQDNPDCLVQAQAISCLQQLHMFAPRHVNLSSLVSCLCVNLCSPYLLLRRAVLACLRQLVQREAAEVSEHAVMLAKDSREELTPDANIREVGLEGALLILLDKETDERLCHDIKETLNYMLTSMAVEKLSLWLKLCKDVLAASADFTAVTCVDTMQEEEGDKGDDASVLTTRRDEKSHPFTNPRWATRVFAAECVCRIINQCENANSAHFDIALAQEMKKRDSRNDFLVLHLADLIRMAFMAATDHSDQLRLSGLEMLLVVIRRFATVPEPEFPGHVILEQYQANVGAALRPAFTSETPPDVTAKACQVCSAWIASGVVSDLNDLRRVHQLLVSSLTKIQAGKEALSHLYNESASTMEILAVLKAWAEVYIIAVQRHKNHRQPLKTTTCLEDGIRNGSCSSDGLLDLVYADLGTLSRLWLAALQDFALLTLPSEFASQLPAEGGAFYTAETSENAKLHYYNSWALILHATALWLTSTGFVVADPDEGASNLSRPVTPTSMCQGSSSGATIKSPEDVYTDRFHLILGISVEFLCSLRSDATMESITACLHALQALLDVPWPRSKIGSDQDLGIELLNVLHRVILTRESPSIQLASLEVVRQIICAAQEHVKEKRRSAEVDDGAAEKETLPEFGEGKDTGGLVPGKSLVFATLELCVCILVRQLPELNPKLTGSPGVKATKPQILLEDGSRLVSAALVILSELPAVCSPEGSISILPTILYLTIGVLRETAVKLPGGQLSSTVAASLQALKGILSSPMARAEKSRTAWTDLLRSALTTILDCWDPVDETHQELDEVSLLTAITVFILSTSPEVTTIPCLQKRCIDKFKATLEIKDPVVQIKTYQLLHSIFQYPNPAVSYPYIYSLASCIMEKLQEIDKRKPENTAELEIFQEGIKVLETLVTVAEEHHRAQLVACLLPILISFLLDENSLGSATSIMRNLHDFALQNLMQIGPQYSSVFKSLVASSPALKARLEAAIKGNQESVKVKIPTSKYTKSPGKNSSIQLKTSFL
UniProt Q8NCD3: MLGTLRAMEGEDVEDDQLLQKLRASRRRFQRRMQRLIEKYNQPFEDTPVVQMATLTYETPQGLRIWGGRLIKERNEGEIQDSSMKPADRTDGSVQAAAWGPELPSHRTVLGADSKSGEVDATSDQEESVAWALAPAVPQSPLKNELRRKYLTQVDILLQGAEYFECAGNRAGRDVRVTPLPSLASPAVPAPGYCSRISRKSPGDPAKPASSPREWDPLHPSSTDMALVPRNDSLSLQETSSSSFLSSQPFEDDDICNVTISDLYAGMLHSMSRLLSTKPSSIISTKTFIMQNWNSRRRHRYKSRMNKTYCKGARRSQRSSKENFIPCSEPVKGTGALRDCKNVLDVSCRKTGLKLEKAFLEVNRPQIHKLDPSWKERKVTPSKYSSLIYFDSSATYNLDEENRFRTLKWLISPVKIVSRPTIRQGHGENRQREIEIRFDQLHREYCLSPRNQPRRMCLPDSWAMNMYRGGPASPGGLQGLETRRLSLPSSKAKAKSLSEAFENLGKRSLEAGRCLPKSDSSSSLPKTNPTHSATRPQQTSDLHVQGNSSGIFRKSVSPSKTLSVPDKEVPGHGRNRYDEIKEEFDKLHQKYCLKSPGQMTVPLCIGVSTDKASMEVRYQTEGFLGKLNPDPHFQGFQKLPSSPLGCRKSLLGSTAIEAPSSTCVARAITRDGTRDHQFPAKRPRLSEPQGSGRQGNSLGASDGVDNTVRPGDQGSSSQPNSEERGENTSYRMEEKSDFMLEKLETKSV
UniProt Q7Z4Q2: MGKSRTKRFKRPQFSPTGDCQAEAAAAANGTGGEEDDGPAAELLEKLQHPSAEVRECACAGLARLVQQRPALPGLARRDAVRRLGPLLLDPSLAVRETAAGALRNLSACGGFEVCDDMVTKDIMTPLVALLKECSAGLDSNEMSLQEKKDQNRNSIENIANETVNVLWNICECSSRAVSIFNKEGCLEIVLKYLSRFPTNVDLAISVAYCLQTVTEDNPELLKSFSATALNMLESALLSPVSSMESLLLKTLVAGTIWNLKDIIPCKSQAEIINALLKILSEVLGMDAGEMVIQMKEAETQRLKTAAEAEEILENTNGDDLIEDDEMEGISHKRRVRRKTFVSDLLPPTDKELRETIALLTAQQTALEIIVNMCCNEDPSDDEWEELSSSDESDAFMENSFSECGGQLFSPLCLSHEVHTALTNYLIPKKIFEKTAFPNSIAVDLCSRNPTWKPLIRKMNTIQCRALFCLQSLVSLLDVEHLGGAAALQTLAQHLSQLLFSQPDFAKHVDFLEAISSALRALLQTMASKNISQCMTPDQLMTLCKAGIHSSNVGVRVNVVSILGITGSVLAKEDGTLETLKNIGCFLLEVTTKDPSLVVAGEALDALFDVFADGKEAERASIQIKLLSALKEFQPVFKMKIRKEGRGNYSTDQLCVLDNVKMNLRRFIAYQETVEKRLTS
UniProt Q96FZ2: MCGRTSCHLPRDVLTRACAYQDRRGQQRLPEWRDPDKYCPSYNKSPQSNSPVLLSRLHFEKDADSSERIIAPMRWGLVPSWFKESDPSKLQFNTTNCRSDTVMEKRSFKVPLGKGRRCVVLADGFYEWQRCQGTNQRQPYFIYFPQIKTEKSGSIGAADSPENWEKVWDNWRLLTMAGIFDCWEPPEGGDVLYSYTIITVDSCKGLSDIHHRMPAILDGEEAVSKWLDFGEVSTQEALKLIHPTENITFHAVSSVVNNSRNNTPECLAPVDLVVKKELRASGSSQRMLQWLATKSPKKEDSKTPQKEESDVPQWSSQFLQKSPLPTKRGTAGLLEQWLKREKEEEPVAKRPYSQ

| Target | log2 mean competition ratio |
| --- | --- |
| HECTD1 C1855 (UniProt Q9ULT8) | 0.131 |
| HMMR C719 (UniProt O75330) | -0.0135 |
| HELB C608 (UniProt Q8NG08) | -0.211 |
| GSTM3 C208 (UniProt P21266) | -0.048 |
| HECTD4 C1406 | 0.234 |
| HERC2 C1506 (UniProt O95714) | 0.113 |
| HNRNPU C648 (UniProt Q00839) | 0.145 |
| HOXB6 C137 | 0.326 |
| HEATR5A C841 (UniProt Q86XA9) | -0.281 |
| HK2 C517 (UniProt P52789) | 0.0918 |
| HJURP C663 (UniProt Q8NCD3) | -0.36 |
| HECTD1 C2275 (UniProt Q9ULT8) | -0.401 |
| HECTD1 C1389 (UniProt Q9ULT8) | 0.336 |
| HDLBP C636 | 0.0952 |
| HASPIN C300 (UniProt Q8TF76) | -0.289 |
| HEATR3 C446 (UniProt Q7Z4Q2) | 0.0552 |
| HOXB8 C215 | -0.0859 |
| HMCES C18 (UniProt Q96FZ2) | -0.0318 |
| HOPX C68 | -0.121 |
| HLA-E C185 | 0.0165 |

Same assay, conditions: 200 µM; treatment time: 4 h; cell line lysate: HEK293T

| Target | log2 mean competition ratio |
| --- | --- |
| HECTD1 C1855 (UniProt Q9ULT8) | 0.198 |
| HMMR C719 (UniProt O75330) | 0.528 |
| HELB C608 (UniProt Q8NG08) | -0.12 |
| GSTM3 C208 (UniProt P21266) | -0.0397 |
| HECTD4 C1406 | -0.021 |
| HERC2 C1506 (UniProt O95714) | -0.0934 |
| HNRNPU C648 (UniProt Q00839) | -0.0554 |
| HOXB6 C137 | -0.136 |
| HEATR5A C841 (UniProt Q86XA9) | -0.333 |
| HK2 C517 (UniProt P52789) | 0.285 |
| HJURP C663 (UniProt Q8NCD3) | 0.0198 |
| HECTD1 C2275 (UniProt Q9ULT8) | 0.0365 |
| HECTD1 C1389 (UniProt Q9ULT8) | -0.101 |
| HDLBP C636 | 0.166 |
| HASPIN C300 (UniProt Q8TF76) | 0.214 |
| HEATR3 C446 (UniProt Q7Z4Q2) | 0.29 |
| HOXB8 C215 | 0.0363 |
| HMCES C18 (UniProt Q96FZ2) | -0.0514 |
| HOPX C68 | -0.121 |
| HLA-E C185 | 0.292 |

From the supplement of paper PMC11732987, “Enantioselective OTUD7B fragment discovery through chemoproteomics screening and high-throughput optimisation” (Communications Chemistry, 2025)
